From publication PMC9969401, “Discovery of 2-(3-Benzamidopropanamido)thiazole-5-carboxylate Inhibitors of the Kinesin HSET (KIFC1) and the Development of Cellular Target Engagement Probes” (Journal of Medicinal Chemistry, 2023)

Experiment: IEDDA test reaction of TCO probes with model tetrazine (LC-MS)
Settings: TCO probe:tetrazine 1:2, room temperature, 5 min

Structure (SMILES) | conversion in IEDDA reaction [%]
CCCOC(=O)c1sc(NC(=O)C[C@H](CCCN(C)CCOCCOCCNC(=O)O[C@@H]2CC/C=C/CCC2)NC(=O)c2cccc(-c3noc(C)n3)c2)nc1C [Compound 39, Propyl 2-((S)-1-(((S,E)-Cyclooct-4-en-1-yl)oxy)-11-methyl-15-(3-(5-methyl-1,2,4-oxadiazol-3-yl)benzamido)-1-oxo-5,8-dioxa-2,11-diazaheptadecan-17-amido)-4-methylthiazole-5-carboxylate] | 35
CCCOC(=O)c1sc(NC(=O)C[C@H](CCCN(C)C(=O)O[C@@H]2CC/C=C/CCC2)NC(=O)c2cccc(-c3noc(C)n3)c2)nc1C [Compound 38, Propyl 2-((S)-6-(((((S,E)-Cyclooct-4-en-1-yl)oxy)carbonyl)(methyl)amino)-3-(3-(5-methyl-1,2,4-oxadiazol-3-yl)benzamido)hexanamido)-4-methylthiazole-5-carboxylate] | 91
CCCOC(=O)c1sc(NC(=O)C[C@H](CCCN(C)CC#CCNC(=O)O[C@@H]2CC/C=C/CCC2)NC(=O)c2cccc(-c3noc(C)n3)c2)nc1C [Compound 40, propyl 2-((S)-6-((4-(((((S,E)-Cyclooct-4-en-1-yl)oxy)carbonyl)amino)but-2-yn-1-yl)(methyl)amino)-3-(3-(5-methyl-1,2,4-oxadiazol-3-yl)benzamido)hexanamido)-4-methylthiazole-5-carboxylate] | 84
